Measurements reported in PubChem BioAssay AID720505 (Drosophila RNAi Screening Center, 2013).
The screen tested about 20,000 reagents; shown is an unselected part of those with a known target gene and a result. In the full data, about 2,100 (10%) were called active. 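Raw plate signals without normalisation; calls rest on control-based scores that were not deposited; replicate 2 separates called from uncalled poorly.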 The numbers tell different reagents against one gene apart. Names joined by + are all predicted targets of the reagent. Not stated in the record: the amount of reagent, the time to read-out.

- Screen: 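Fly regulators or components of the CRAC channel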 (primary screen)
- Cells: Drosophila S2R+ cells
- Knock-down reagent: long dsRNA against Drosophila genes
- Treatment: thapsigargin (2 µM) in calcium-free buffer to empty internal stores, then 2 mM calcium added back
- Read-out: 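Stores emptied by 2 µM thapsigargin without calcium, then 2 mM calcium re-added; fluo-4 fluorescence followed by FLIPR in 384-well plates, per-well averaged endpoint, raw; two screen passes, some wells retested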
- Reading the numbers: calcium signal and retest calcium signal: higher = more calcium entry after store depletion
- Active means: 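Knock-downs counted as hits when calcium entry dropped relative to STIM1 positive and Rho1 negative controls present on each plate; roughly 1500 genes called, with reductions of differing size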
- Meaning of the calls: active = called as lowering calcium entry; inactive = not called

Against ASPP #1 the deposit lists calcium signal, replicate 1 = 109; calcium signal, replicate 2 = 119; inactive. For ASPP #2, the values are calcium signal, replicate 1 = 108; calcium signal, replicate 2 = 74.9; inactive. car (carnation) showed calcium signal, replicate 1 = -15.6; calcium signal, replicate 2 = 101; inactive. Knock-down of tra (transformer) resulted in: calcium signal, replicate 1 = 106; calcium signal, replicate 2 = 187; inactive. After knock-down of Nup35 (Nucleoporin 35kDa), the screen gave calcium signal, replicate 1 = 185; calcium signal, replicate 2 = 158; inactive. CG3021 #1 showed calcium signal, replicate 1 = 99.4; calcium signal, replicate 2 = 146; inactive.

Depletion of CG3021 #2 gave: calcium signal, replicate 1 = 108; calcium signal, replicate 2 = 139; inactive. Depletion of Or98a (Odorant receptor 98a) resulted in: calcium signal, replicate 1 = 110; calcium signal, replicate 2 = 77.8; inactive. Cyp317a1 (Cytochrome P450 317a1) showed calcium signal, replicate 1 = 159; calcium signal, replicate 2 = 171; inactive. PXo (P[[i]]-sensitive XPR1 orthologue) scored calcium signal, replicate 1 = 94.1; calcium signal, replicate 2 = 86.4; inactive. After knock-down of CG14861, the record shows calcium signal, replicate 1 = 140; calcium signal, replicate 2 = 240; inactive. After knock-down of VhaM9.7-c (Vacuolar H[+] ATPase M9.7 subunit c), the record shows calcium signal, replicate 1 = 66.5; calcium signal, replicate 2 = 118; active.

Silencing of c(2)M (crossover suppressor on 2 of Manheim) came out at: calcium signal, replicate 1 = 72.5; calcium signal, replicate 2 = 147; inactive. With knock-down of h-cup + Rbp, the record shows calcium signal, replicate 1 = 106; calcium signal, replicate 2 = 101; inactive. Silencing of Dgk (Diacyl glycerol kinase) #1 came out at: calcium signal, replicate 1 = 158; calcium signal, replicate 2 = 162; inactive. Dgk (Diacyl glycerol kinase) #2 gave calcium signal, replicate 1 = 155; calcium signal, replicate 2 = 103; inactive. After knock-down of Dgk (Diacyl glycerol kinase) #3 the results were calcium signal, replicate 1 = 144; calcium signal, replicate 2 = 152; inactive. Against Dgk (Diacyl glycerol kinase) #4, the values are calcium signal, replicate 1 = 72.6; calcium signal, replicate 2 = 77.5; retest calcium signal, replicate 1 = 129; retest calcium signal, replicate 2 = 107; inactive.

Knock-down of Dgk (Diacyl glycerol kinase) #5 gave: calcium signal, replicate 1 = 58.8; calcium signal, replicate 2 = 117; active. Silencing of ppk30 (pickpocket 30) gave: calcium signal, replicate 1 = 96.8; calcium signal, replicate 2 = 118; active. Rad60 scored calcium signal, replicate 1 = 177; calcium signal, replicate 2 = 134; inactive. CG6126 scored calcium signal, replicate 1 = 180; calcium signal, replicate 2 = 189; inactive. barr (barren) gave calcium signal, replicate 1 = 97.3; calcium signal, replicate 2 = 92.8; inactive. T48 (Transcript 48) gave calcium signal, replicate 1 = 160; calcium signal, replicate 2 = 167; inactive.

With knock-down of DEF8 (differentially expressed in FDCP 8 homolog), the screen gave calcium signal, replicate 1 = 101; calcium signal, replicate 2 = 79.4; inactive. For Fib (Fibrillarin) the deposit lists calcium signal, replicate 1 = 126; calcium signal, replicate 2 = 216; inactive. tsg (twisted gastrulation) gave calcium signal, replicate 1 = 121; calcium signal, replicate 2 = 90; inactive. TpnC4 (Troponin C isoform 4) gave calcium signal, replicate 1 = 139; calcium signal, replicate 2 = 152; inactive. CG6847 #1 showed calcium signal, replicate 1 = 95.6; calcium signal, replicate 2 = 98.4; inactive. Depletion of CG6847 #2 gave: calcium signal, replicate 1 = 89.7; calcium signal, replicate 2 = 84.9; inactive.

With knock-down of eIF3f2 (eukaryotic translation initiation factor 3 subunit f2) the results were calcium signal, replicate 1 = 110; calcium signal, replicate 2 = 175; inactive. CG34289 scored inactive. After knock-down of Nil (Nilkantha) #1 the results were calcium signal, replicate 1 = 184; calcium signal, replicate 2 = 112; inactive. With knock-down of Nil (Nilkantha) #2, the screen gave calcium signal, replicate 1 = 97.1; calcium signal, replicate 2 = 153; inactive. For Rcd6 (Reduction in Cnn dots 6) the deposit lists calcium signal, replicate 1 = 175; calcium signal, replicate 2 = 87.3; inactive.

Entries listed so far marked active (3):
VhaM9.7-c (Vacuolar H[+] ATPase M9.7 subunit c) — calcium signal, replicate 1 = 66.5; calcium signal, replicate 2 = 118; call = active
Dgk (Diacyl glycerol kinase) #5 — calcium signal, replicate 1 = 58.8; calcium signal, replicate 2 = 117; call = active
ppk30 (pickpocket 30) — calcium signal, replicate 1 = 96.8; calcium signal, replicate 2 = 118; call = active
